The nature of the assay: qHTS Assay for Modulators of Lamin A Splicing. The following applies: HeLa LMNA splicing GFP/RFP minigene ratio, 48 h. An outline of the steps: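 S3 HeLa stable clones carrying a lamin A-EGFP splicing minigene plus DsRed2 were seeded at 600 cells/well in Opti-MEM with 2% FBS, pin-dosed and incubated 48 h at 37°C. Acumen cytometry (488 nm) gave the GFP/RFP total-intensity ratio.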
On the technique in general: In qHTS, concentration-response curves come from the screen itself.

[1] abbreviates: measured here: RFP viability control channel.
[2] abbreviates: measured here: GFP splicing reporter channel.

The structures appear in SMILES notation. Several values for one entry are separate records, joined by “and”; a condition that tells them apart may be missing. Identical values can stand only once. The list shows a part of the results. Shown are side measurements of this screen, not its main read-out; they come without a call. Compounds called inactive in the main read-out are mostly missing here. Potencies come from curve fits of mixed quality, noted in brackets.

As a reminder, the AC50 is the midpoint of the concentration-response curve, whichever way the signal moves. `Cc1ccc(O)c(CN2CCN(c3ccccc3)CC2)c1`: the AC50 under setting [1] was 31.6 µM [rising, single point]. `CC[N+](CC)(CC#CCO)CC#Cc1ccccc1`: the concentration at half-maximal activity (AC50) is 10 µM [falling, single point] under setting [2] and 0.0178 µM [falling, partial curve, poor fit] under setting [1]. On to `COc1cc2c(c(OC)c1OC)-c1ccc(O)c(=O)cc1[C@H](N)CC2`, for which the concentration at half-maximal activity (AC50) under setting [2] is 0.0631 µM [falling, full curve, poor fit].

Consider `CCOC(=O)c1sc(N=Nc2c(O)[nH]c(=O)[nH]c2=O)c(C(=O)OCC)c1C`, for which, under setting [1], the AC50 was 0.0282 µM [falling, full curve, poor fit]. As for `Cc1cccc(OCC(=O)N2CCN(Cc3ccc4c(c3)OCO4)CC2)c1`, the AC50 under setting [2] was 0.158 µM [falling, full curve, poor fit]. As to `CCOc1ccc(CC2C(=O)NC(=O)N(c3ccc(CC)cc3)C2=O)cc1` (stereo not drawn), the concentration at half-maximal activity (AC50) runs as follows: under setting [2], 5.62 µM [rising, single point]; under setting [1], 5.62 µM [rising, single point]. Regarding `COc1cccc(C(=O)C2CCCN(Cc3ccon3)C2)c1` (stereo not drawn), under setting [1], the AC50 was 0.251 µM [falling, full curve, poor fit]. The same measure, in the same setting: under `C[C@H]1O[C@H]1P(=O)(O)O` stands 0.00891 µM [falling, full curve, poor fit]; under `CCN(CC)C(=O)N[C@@H]1C=C2c3cccc4[nH]cc(c34)C[C@H]2N(C)C1`, 0.00316 µM [rising, full curve, poor fit]. Still for that read-out and setting: the figure for `Cc1ccc(-n2c(/C=C/c3cc(Br)cs3)nc3ccccc3c2=O)cc1` is 10 µM [rising, single point]. `N[C@H]1C[C@H]1c1ccccc1`: the AC50 under setting [2] was 6.31 µM [falling, single point] and the AC50 under setting [1] was 14.1 µM [falling, single point].

Consider `COc1ccc(C(CN(C)C)C2(O)CCCCC2)cc1` (stereo not drawn), for which the AC50 under setting [1] is 0.002 µM [falling, full curve, poor fit]. Take `CC(C)C(=O)Nc1ccc([N+](=O)[O-])c(C(F)(F)F)c1`: the concentration at half-maximal activity (AC50) under setting [2] was 0.0447 µM [falling, full curve] and the AC50 under setting [1] is 0.0794 µM [falling, full curve]. Take `COc1cc(/C=C/C(=O)c2c(O)n(CCc3ccccc3)c(=O)[nH]c2=O)ccc1O`: the half-maximal activity concentration (AC50) reads like this: under setting [2], 35.5 µM [falling, single point]; under setting [1], 3.55 µM [rising, partial curve, poor fit]. Turning to `O=c1c2ccccc2nc(/C=C\c2ccccc2F)n1-c1ccc(O)cc1`, the AC50 under setting [2] is 35.5 µM [falling, single point]. `CN1CCN(S(=O)(=O)c2cnc(Cl)c(Br)c2)CC1`: the AC50 under setting [1] was 20 µM [rising, single point].

In the case of `CC(=O)Nc1ccc(N=Cc2c(O)n(Cc3ccco3)c(=O)[nH]c2=O)cc1`, the concentration at half-maximal activity (AC50) reads like this: under setting [2], 5.01 µM [falling, single point]; under setting [1], 5.01 µM [falling, partial curve]. In the case of `CCOc1ccc(-n2c(-c3cccs3)nc3ccccc3c2=O)cc1`, the half-maximal activity concentration (AC50) under setting [1] is 0.708 µM [falling, full curve].

For the compound `CCN1C(=O)c2ccccc2Sc2ccc(C(=O)N3CCC4(CC3)OCCO4)cc21`, the AC50 is 12.6 µM [rising, single point] under setting [2] and 12.6 µM [rising, partial curve] under setting [1]. For `CCOC(=O)CC(NC(=O)C(Cc1ccc(N(CCCl)CCCl)cc1)NC(C)=O)C(=O)OCC` (stereo not drawn), the AC50 runs as follows: under setting [2], 3.98 µM [falling, full curve]; under setting [1], 3.16 µM [falling, full curve]. Regarding `CNC(=O)Oc1ccc2c(c1)[C@]1(C)CCN(C)[C@@H]1N2C`, the half-maximal activity concentration (AC50) under setting [1] was 0.00398 µM [rising, full curve, poor fit]. In the case of `Cc1cc(-n2c(/C=C/c3ccc(Br)s3)nc3ccccc3c2=O)ccc1Br`, the AC50 by setting is: under setting [2], 2 µM [rising, partial curve]; under setting [1], 0.501 µM [rising, full curve, poor fit]. As to `Cn1c(=O)n(C)c2cc([N+](=O)[O-])c(N3CCNCC3)cc21`, under setting [2], the AC50 was 35.5 µM [falling, single point].

Turning to `COc1ccccc1-c1nn2c(=O)cc(CN3CCN(C(=O)Nc4ccc(C)cc4Cl)CC3)nc2s1`, the AC50 runs as follows: under setting [2], 1.26 µM [rising, full curve, poor fit]; under setting [1], 2.51 µM [rising, full curve, poor fit]. For the compound `CC(=O)N1CCN(c2ccc(OC[C@@H]3CO[C@@](Cn4ccnc4)(c4ccc(Cl)cc4Cl)O3)cc2)CC1`, the AC50 by setting is: under setting [2], 0.0316 µM [falling, full curve]; under setting [1], 0.0112 µM [falling, full curve].

For `NC(Cc1ccc(N(CCCl)CCCl)cc1)C(=O)O` (stereo not drawn), the AC50 was 11.2 µM [falling, partial curve] under setting [2] and 15.8 µM [falling, partial curve] under setting [1]. `COc1ccc(C[C@H]2c3cc(OC)c(OC)cc3CCN2C)cc1OC`: the half-maximal activity concentration (AC50) was 0.2 µM [falling, single point] under setting [2] and 0.316 µM [falling, single point] under setting [1]. With `OC(c1ccccc1)(c1ccccc1)C1CN2CCC1CC2` (stereo not drawn), the AC50 under setting [1] was 0.355 µM [falling, partial curve]. As for `CN(C)c1nc(-c2ccccc2)[n+](C)s1`, the AC50 is 0.708 µM [rising, single point] under setting [2] and 0.158 µM [rising, single point] under setting [1]. Take `CCN(CC)C1=NC(=[N+](CC)CC)c2ccccc21`: the half-maximal activity concentration (AC50) under setting [1] was 17.8 µM [falling, partial curve]. On the same count and under the same terms, the figure for `Cc1ccc(Cc2c(C)nc3nc(SCC(=O)N4CCC5(CC4)OCCO5)nn3c2C)cc1` is 35.5 µM [rising, single point]. `Cc1ccc(Cn2cc(C=O)c(-c3ccc(C)cc3)n2)cc1`: the AC50 under setting [2] is 25.1 µM [rising, partial curve, poor fit]. For the compound `CN(C)C(=O)Oc1cccc([N+](C)(C)C)c1`, the concentration at half-maximal activity (AC50) under setting [2] is 44.7 nM [falling, full curve, poor fit] and 3.98 µM [rising, full curve, poor fit] and 20 µM [rising, single point]; the AC50 under setting [1] is 5.01 µM [rising, full curve] and 4.47 nM [falling, full curve, poor fit].

Regarding `O=C(Oc1cccc2cccnc12)c1ccccc1`, the AC50 reads like this: under setting [2], 2 µM [falling, partial curve]; under setting [1], 3.98 µM [falling, partial curve]. Regarding `O=c1[nH]cnc2[nH]ncc12`, the concentration at half-maximal activity (AC50) is, setting by setting: under setting [2], 0.447 µM [falling, full curve, poor fit]; under setting [1], 6.31 µM [falling, partial curve, poor fit]. For the compound `CC12CN3C(O)C(C)(C1)CC(C)(C2)C3O` (stereo not drawn), the AC50 under setting [2] was 11.2 µM [rising, single point] and the AC50 under setting [1] was 11.2 µM [rising, single point]. Regarding `Cc1cc(O)c2c(c1)C(=O)c1cc(O)cc(O)c1C2=O`, the AC50 runs as follows: under setting [2], 22.4 µM [falling, partial curve]; under setting [1], 0.00562 µM [falling, full curve, poor fit]. With `C=CCn1c(O)c(C(C)=NCc2cc(OC)cc(OC)c2)c(=O)[nH]c1=O`, the AC50 under setting [1] was 8.91 µM [rising, partial curve, poor fit]. As for `COc1cc2c(cc1OC)[C@@H]1C(=O)c3ccc(OC)c(CC=C(C)C)c3OC1CO2` (stereo partly drawn), the AC50 was 11.2 µM [falling, partial curve, poor fit] under setting [2] and 20 µM [falling, partial curve] under setting [1]. Take `c1ccc(-c2ccc(-c3n(-c4ccccn4)c4ccccc4[n+]3-c3ccccn3)cc2)cc1`: under setting [1], the AC50 was 11.2 µM [rising, partial curve, poor fit]. In the case of `O=C1C=Cc2ccccc2C1=O`, the AC50 was 35.5 µM [falling, partial curve, poor fit] under setting [2] and 0.0224 µM [falling, full curve] under setting [1]. Turning to `CC(N)C(=O)OC(C)(C)Cc1ccc(Cl)cc1` (stereo not drawn), the AC50 under setting [2] was 12.6 µM [falling, partial curve, poor fit] and the AC50 under setting [1] was 8.91 µM [falling, partial curve, poor fit]. In the case of `Cc1ccc(-n2c(/C=C/c3ccc(Br)s3)nc3ccccc3c2=O)cc1`, the AC50 under setting [1] was 1.41 µM [rising, full curve]. As to `CCS(=O)(=O)N1N=C(c2cccc(NS(C)(=O)=O)c2)CC1c1ccccc1` (stereo not drawn), the concentration at half-maximal activity (AC50) runs as follows: under setting [2], 0.794 µM [rising, full curve]; under setting [1], 1.26 µM [rising, single point]. As to `COc1cc(OC)c(OC)cc1/C=C1\C(=O)NC(=O)N(Cc2ccccc2)C1=O`, under setting [1], the half-maximal activity concentration (AC50) is 0.501 µM [falling, partial curve, poor fit]. `CC[n+]1c(-c2ccccc2)c2cc(N)ccc2c2ccc(N)cc21`: the AC50 is 11.2 µM [falling, partial curve] under setting [2] and 22.4 µM [falling, single point] under setting [1]. Consider `O=c1c2ccccc2nc(/C=C/c2cccc3ccccc23)n1-c1ccccc1Cl`, for which the AC50 under setting [1] was 0.0224 µM [rising, full curve, poor fit]. Consider `Fc1ccc2c(c1)nnn2C1CCN(Cc2nnnn2CCc2ccccc2)CC1`, for which, under setting [2], the half-maximal activity concentration (AC50) was 1.78 µM [rising, full curve]. Same read-out and setting: the figure for `CNC(=O)OCC[N+](C)(C)C` is 0.282 µM [rising, full curve, poor fit]. With `C[C@]12CC[C@@H]3c4ccc(O)c(O)c4CC[C@H]3[C@@H]1CC[C@@H]2O`, the AC50 under setting [2] was 7.08 µM [falling, full curve, poor fit] and the AC50 under setting [1] was 8.91 µM [falling, partial curve, poor fit].

On to `ClC(Cl)(Cl)Cl`, for which the AC50 reads like this: under setting [2], 0.1 µM [rising, full curve, poor fit]; under setting [1], 0.00141 µM [rising, full curve, poor fit]. `CC(NCC#Cc1ccccc1)C(O)c1ccccc1` (stereo not drawn): the AC50 under setting [1] is 0.00562 µM [falling, full curve, poor fit].
